Measurements from patent US11578051B2, “Thiophene carboxamide derivative and plant disease control agent comprising same” (KOREA RESEARCH INSTITUTE OF CHEMICAL TECHNOLOGY, priority 2018, dated 2023).
Some results were stated once for a whole list of compounds, not compound by compound. Some ranges recur; such a range may be that of the whole group of compounds.

System: cucumber powdery mildew pathogen (Sphaerotheca fusca)
Test: Cucumber powdery mildew control effect test
Format: in vivo
Details: cucumber (Baekdadagi), foliar spray, active ingredient 200 ppm, spraying dose 30 mL, assessed 13 days after treatment
Description: A predetermined amount of the present compound corresponding to the test concentration was dissolved in 10% acetone and then was sprayed to foliage in a single leafy cucumber (variety: Baekdadagi) grown in a circular pot (6×7 cm, diameter×height). One day after application, the Cucumber plants were inoculated by spraying a spore suspension prepared with spores obtained from cucumber leaves infected with cucumber powdery mildew pathogen (Sphaerotheca fusca). After an incubation period of 1 day at 20° C. humid conditions, the plants were kept in a chamber for 12 days at a constant temperature and humidity under constant light conditions. After 13 days of the compound treatment, the disease incidence was assessed according to equation (1) of Experimental Example 1, and the control value was determined according to the criteria of Experimental Example 1. Compound No. 1 and the following four compounds as a comparative control compound were evaluated for controlling cucumber powdery mildew as described in Experimental Example 3.

| SMILES | control value criterion |
| --- | --- |
| CCO/N=C/c1c(F)cc(-c2ccccc2NC(=O)c2sccc2C)cc1F [Compound 3, (E)-N-(4′-((ethoxyimino)methyl)-3′,5′-difluoro-[1,1′-biphenyl]-2-yl)-3-methylthiophene-2-carboxamide] | 5 (Control value 90-100%) |
| Cc1ccsc1C(=O)Nc1ccccc1-c1cc(F)c(/C=N/OC(C)C)c(F)c1 [Compound 4, (E)-N-(3′,5′-difluoro-4′-((isopropoxyimino)methyl)-[1,1′-biphenyl]-2-yl)-3-methylthiophene-2-carboxamide] | 5 (Control value 90-100%) |
| CON=Cc1c(F)cc(-c2ccccc2NC(=O)c2sccc2C)cc1F [Compound 1, N-(3′,5′-difluoro-4′-((methoxyimino)methyl)-[1,1′-biphenyl]-2-yl)-3-methylthiophene-2-carboxamide] | 5 (Control value 90-100%) |
| Cc1ccsc1C(=O)Nc1ccccc1-c1cc(F)c(/C=N/OCC(F)(F)F)c(F)c1 [Compound 9, (E)-N-(3′,5′-difluoro-4′-(((2,2,2-trifluoroethoxy)imino)methyl)-[1,1′-biphenyl]-2-yl)-3-methylthiophene-2-carboxamide] | 5 (Control value 90-100%) |
| Cc1ccsc1C(=O)Nc1ccccc1-c1cc(F)c(/C=N/OCc2ccccc2)c(F)c1 [Compound 5, (E)-N-(4′-(((benzyloxy)imino)methyl)-3′,5′-difluoro-[1,1′-biphenyl]-2-yl)-3-methylthiophene-2-carboxamide] | 5 (Control value 90-100%) |
